# Data as given in the supplement of paper PMC7666118.
# By UniProt entry, the sequences of proteins in these tests, tags left out. Where a name states a change or a piece, a line headed by the entry shows the natural chain unless it says otherwise.
# UniProt Q86X19: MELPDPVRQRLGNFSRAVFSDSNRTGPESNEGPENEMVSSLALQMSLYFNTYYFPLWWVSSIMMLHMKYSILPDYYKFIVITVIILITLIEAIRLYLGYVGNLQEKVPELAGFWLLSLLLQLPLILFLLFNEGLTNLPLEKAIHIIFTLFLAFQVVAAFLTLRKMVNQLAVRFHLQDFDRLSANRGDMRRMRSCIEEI
# UniProt Q8WVT3: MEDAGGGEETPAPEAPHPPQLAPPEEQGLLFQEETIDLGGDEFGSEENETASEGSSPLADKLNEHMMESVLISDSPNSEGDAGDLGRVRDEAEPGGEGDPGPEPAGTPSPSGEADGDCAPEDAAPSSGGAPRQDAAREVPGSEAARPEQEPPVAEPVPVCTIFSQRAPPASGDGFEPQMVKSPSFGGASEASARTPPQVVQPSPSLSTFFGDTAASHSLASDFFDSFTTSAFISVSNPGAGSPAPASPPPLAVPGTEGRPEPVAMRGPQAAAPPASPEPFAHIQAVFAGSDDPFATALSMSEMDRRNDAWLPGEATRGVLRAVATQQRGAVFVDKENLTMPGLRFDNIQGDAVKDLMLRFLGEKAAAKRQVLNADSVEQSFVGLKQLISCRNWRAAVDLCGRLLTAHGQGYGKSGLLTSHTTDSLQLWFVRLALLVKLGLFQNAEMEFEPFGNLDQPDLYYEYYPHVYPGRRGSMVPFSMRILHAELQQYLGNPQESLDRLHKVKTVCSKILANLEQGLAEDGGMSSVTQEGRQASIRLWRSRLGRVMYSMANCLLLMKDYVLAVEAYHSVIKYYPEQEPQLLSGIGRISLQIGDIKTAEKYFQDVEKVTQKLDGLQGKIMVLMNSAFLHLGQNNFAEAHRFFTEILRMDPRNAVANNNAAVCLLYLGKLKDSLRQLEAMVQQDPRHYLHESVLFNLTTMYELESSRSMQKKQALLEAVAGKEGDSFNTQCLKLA
# UniProt Q99805: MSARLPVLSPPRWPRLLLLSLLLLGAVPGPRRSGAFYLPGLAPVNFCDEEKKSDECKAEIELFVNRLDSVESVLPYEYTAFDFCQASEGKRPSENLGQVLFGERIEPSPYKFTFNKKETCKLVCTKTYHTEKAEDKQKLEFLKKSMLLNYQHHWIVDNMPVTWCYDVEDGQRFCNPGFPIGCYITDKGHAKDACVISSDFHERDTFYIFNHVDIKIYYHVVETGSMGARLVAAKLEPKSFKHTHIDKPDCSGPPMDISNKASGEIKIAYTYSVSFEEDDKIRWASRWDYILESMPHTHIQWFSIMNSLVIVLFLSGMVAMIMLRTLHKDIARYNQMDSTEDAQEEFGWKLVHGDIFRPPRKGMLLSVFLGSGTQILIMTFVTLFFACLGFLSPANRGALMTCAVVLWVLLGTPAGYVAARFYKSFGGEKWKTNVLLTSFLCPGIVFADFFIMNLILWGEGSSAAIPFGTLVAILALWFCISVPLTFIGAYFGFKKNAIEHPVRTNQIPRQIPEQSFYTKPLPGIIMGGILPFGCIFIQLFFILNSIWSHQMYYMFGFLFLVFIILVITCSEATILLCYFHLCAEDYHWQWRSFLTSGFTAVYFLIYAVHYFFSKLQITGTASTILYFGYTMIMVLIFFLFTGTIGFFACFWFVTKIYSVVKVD
# UniProt Q8N4H5: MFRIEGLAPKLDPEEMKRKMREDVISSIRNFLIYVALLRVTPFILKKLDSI
# UniProt Q9Y5S1: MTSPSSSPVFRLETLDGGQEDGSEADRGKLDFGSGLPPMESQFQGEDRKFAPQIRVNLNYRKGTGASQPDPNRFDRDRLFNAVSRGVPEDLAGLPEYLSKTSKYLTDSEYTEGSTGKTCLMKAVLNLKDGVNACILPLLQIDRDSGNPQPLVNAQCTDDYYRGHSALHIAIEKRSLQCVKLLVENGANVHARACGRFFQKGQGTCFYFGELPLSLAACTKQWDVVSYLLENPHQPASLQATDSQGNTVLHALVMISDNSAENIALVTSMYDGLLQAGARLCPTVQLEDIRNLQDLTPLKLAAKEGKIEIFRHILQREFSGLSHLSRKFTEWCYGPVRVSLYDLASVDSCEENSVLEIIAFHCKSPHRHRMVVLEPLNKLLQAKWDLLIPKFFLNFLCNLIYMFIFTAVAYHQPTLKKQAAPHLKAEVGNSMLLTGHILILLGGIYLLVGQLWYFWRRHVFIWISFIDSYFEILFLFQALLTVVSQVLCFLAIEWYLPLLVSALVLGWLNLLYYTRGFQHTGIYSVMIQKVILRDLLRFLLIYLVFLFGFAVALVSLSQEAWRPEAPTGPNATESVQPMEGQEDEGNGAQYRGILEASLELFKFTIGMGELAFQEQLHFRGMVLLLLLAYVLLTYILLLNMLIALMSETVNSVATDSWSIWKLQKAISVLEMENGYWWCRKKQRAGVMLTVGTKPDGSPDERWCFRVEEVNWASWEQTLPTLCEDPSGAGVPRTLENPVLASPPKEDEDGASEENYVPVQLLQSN
# UniProt Q86W42: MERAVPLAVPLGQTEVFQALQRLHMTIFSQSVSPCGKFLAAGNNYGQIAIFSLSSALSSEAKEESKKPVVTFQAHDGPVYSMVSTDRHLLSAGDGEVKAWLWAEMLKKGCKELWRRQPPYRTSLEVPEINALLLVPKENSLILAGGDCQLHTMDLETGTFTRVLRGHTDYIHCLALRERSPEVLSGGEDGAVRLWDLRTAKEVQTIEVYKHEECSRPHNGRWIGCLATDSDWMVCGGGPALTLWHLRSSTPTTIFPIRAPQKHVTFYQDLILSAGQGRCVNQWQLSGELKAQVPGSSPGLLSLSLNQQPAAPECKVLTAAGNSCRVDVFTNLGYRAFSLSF
# UniProt Q15650: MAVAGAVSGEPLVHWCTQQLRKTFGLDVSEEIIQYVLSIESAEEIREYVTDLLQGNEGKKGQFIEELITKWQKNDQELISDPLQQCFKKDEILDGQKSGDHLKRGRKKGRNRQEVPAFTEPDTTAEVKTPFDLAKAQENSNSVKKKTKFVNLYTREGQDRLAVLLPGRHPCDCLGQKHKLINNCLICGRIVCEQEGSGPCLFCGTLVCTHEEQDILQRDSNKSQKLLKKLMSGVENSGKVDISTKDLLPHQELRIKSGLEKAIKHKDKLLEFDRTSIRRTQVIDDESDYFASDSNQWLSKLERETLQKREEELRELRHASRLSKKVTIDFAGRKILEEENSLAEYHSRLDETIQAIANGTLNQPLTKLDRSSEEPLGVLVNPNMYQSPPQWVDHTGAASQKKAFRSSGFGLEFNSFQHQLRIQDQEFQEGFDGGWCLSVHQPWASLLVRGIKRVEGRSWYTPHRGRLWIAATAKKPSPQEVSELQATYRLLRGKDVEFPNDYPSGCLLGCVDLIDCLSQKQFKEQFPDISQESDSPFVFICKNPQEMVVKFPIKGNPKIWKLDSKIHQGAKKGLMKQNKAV
# UniProt P49815: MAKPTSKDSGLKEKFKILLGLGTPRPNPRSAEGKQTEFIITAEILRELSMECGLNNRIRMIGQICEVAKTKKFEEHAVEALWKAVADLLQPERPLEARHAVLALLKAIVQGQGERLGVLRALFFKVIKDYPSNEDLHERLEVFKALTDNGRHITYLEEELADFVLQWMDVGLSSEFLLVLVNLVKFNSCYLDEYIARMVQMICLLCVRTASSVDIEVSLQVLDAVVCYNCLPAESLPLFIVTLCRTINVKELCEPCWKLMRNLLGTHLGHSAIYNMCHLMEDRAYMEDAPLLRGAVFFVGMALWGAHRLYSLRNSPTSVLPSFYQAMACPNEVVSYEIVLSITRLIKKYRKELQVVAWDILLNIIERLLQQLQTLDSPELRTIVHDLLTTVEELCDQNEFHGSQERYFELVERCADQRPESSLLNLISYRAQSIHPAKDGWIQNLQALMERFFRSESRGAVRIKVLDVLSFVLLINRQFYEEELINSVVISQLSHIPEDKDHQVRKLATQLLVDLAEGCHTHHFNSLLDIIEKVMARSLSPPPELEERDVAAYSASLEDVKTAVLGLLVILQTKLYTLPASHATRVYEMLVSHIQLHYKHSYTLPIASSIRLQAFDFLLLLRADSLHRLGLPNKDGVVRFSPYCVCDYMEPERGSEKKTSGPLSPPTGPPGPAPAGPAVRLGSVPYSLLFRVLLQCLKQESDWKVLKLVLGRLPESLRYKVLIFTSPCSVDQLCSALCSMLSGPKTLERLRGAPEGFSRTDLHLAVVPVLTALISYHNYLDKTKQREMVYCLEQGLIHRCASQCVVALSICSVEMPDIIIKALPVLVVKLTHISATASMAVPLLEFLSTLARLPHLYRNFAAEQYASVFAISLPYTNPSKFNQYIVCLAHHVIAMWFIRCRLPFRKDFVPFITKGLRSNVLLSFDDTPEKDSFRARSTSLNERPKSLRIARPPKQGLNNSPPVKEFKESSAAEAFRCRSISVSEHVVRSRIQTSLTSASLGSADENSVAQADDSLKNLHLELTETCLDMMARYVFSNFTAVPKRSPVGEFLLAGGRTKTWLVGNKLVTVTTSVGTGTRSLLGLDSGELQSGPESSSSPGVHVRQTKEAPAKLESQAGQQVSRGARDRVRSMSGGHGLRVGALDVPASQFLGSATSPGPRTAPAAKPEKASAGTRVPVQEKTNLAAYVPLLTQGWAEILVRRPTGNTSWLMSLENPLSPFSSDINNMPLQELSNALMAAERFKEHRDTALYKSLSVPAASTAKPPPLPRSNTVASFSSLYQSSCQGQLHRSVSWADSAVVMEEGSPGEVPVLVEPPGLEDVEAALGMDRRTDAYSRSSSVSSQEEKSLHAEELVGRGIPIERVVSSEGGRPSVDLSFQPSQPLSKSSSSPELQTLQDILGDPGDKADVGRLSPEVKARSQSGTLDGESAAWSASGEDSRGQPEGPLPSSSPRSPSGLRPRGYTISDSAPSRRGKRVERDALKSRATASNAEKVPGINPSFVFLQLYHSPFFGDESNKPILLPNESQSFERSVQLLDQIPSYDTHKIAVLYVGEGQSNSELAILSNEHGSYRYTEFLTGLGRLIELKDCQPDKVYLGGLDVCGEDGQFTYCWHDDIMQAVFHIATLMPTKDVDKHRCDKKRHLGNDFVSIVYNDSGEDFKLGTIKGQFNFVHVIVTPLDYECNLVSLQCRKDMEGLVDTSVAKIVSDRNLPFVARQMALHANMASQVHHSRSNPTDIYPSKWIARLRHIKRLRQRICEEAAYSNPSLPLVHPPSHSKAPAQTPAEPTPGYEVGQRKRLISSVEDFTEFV
# UniProt Q9UBN6: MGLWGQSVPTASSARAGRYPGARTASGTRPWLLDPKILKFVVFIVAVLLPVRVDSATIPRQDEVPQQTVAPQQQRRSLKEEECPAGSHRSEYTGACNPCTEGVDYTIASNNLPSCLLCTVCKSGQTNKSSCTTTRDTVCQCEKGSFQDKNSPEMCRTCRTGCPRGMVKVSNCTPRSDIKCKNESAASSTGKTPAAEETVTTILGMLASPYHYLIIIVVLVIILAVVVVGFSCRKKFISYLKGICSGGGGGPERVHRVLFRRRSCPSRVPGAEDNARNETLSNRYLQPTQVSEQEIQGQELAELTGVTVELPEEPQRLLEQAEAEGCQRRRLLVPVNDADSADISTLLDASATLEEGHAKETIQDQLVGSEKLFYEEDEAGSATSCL
# UniProt Q9UJA5: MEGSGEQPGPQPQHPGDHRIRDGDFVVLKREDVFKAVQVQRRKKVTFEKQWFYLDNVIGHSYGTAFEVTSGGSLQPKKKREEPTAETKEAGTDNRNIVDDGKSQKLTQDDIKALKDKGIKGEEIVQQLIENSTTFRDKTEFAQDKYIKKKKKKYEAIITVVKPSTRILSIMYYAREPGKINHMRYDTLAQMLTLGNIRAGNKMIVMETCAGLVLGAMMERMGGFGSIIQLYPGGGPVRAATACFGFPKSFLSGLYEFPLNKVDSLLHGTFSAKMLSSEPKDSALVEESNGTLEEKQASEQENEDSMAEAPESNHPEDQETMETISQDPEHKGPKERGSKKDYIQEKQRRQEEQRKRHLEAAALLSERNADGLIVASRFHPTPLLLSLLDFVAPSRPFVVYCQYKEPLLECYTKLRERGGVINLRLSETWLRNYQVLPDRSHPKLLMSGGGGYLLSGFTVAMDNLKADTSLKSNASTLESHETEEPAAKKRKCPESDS
# UniProt Q9NS93: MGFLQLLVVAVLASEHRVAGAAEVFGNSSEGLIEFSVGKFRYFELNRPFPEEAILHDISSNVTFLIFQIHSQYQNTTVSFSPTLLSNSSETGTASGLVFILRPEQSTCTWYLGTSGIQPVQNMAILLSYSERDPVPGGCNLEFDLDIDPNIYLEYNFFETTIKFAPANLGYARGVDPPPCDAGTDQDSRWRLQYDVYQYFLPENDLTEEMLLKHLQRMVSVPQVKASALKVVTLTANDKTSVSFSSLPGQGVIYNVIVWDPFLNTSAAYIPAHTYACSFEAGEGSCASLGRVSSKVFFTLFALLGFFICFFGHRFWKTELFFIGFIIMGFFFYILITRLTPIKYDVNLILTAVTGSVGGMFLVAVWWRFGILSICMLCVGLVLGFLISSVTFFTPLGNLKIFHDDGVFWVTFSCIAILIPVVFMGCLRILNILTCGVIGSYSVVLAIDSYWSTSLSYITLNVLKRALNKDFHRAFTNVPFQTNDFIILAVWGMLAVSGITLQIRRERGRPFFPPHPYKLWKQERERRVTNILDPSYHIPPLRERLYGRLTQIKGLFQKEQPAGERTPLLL
# This is one part of the list.
# Compound: COc1ccc(Cn2ccc3cc(C)c(C(=O)NO)cc32)cc1
# Assay: dose-dependent thermal stabilisation call (2D-TPP, DLPTP, 10% FDR) (binary (1 = stabilised)); higher = stabilised by the compound
# Details: system: HL-60 intact cells; concentration range 0.04-10 µM
# Experimental: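 2D thermal proteome profiling in intact HL-60 cells treated with BRD-3811 (0, 0.04, 0.29, 2, 10 uM) for 90 min at 37 C, then heated 3 min at one of 12 temperatures (42-63.9 C). Soluble protein was quantified by TMT10 MS. The value is the DLPTP call of the paper: dose-dependent thermal stabilisation over all temperatures at 10% FDR (F-test of a dose-response against a flat model); one experiment, one call per tested protein.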
row,Target,dose-dependent thermal stabilisation call
1,TMED8 (UniProt Q6PL24),inactive: 0
2,TSG101 (UniProt Q99816),inactive: 0
3,THUMPD2 (UniProt Q9BTF0),inactive: 0
4,THOC2 (UniProt Q8NI27),inactive: 0
5,THUMPD1 (UniProt Q9NXG2),inactive: 0
6,TMEM17 (UniProt Q86X19),inactive: 0
7,TMCO6 (UniProt Q96DC7),inactive: 0
8,TTC15 (UniProt Q8WVT3),inactive: 0
9,TSR2 (UniProt Q969E8),inactive: 0
10,TMEM189-UBE2V1 (UniProt A5PLL7),inactive: 0
11,TRIM4 (UniProt Q9C037),inactive: 0
12,TTC21B (UniProt Q7Z4L5),inactive: 0
13,TM9SF2 (UniProt Q99805),inactive: 0
14,TOMM70A (UniProt O94826),inactive: 0
15,TOMM5 (UniProt Q8N4H5),inactive: 0
16,TMEM85 (UniProt Q5J8M3),inactive: 0
17,TRIP6 (UniProt Q15654),inactive: 0
18,TRPV2 (UniProt Q9Y5S1),inactive: 0
19,TPP1 (UniProt O14773),inactive: 0
20,TMEM161B (UniProt Q8NDZ6),inactive: 0

row,Target,dose-dependent thermal stabilisation call
1,THOC6 (UniProt Q86W42),inactive: 0
2,TP53I3 (UniProt Q53FA7),inactive: 0
3,TRIM25 (UniProt Q14258),inactive: 0
4,TRIM16 (UniProt O95361),inactive: 0
5,TRIP4 (UniProt Q15650),inactive: 0
6,TOMM40 (UniProt O96008),inactive: 0
7,TRIP13 (UniProt Q15645),inactive: 0
8,TRPM2 (UniProt O94759),inactive: 0
9,TSC2 (UniProt P49815),inactive: 0
10,TJAP1 (UniProt Q5JTD0),inactive: 0
11,TMEM160 (UniProt Q9NX00),inactive: 0
12,TRPT1 (UniProt Q86TN4),inactive: 0
13,TNFRSF10D (UniProt Q9UBN6),inactive: 0
14,TJP2 (UniProt Q9UDY2),inactive: 0
15,TRMT6 (UniProt Q9UJA5),active: 1
16,TM7SF3 (UniProt Q9NS93),active: 1
17,TMEM111 (UniProt Q9P0I2),inactive: 0
18,TNFRSF10B (UniProt O14763),inactive: 0
19,TIMM44 (UniProt O43615),inactive: 0
20,TMEM43 (UniProt Q9BTV4),inactive: 0

# Two entries from above, tab-delimited.
row	Target	dose-dependent thermal stabilisation call
9	TSC2 (UniProt P49815)	inactive: 0
16	TM7SF3 (UniProt Q9NS93)	active: 1
